No constants are given. Whether binding was seen depends on the method and setting. In cells and extracts the contact can be indirect. A yes stands for co-enrichment or nearness to the bait. Other partners may have been found. Sequences can lack the tags named with a protein.
Target: T1, CLPTM1L-HA (UniProt Q96KA5)
T1 sequence: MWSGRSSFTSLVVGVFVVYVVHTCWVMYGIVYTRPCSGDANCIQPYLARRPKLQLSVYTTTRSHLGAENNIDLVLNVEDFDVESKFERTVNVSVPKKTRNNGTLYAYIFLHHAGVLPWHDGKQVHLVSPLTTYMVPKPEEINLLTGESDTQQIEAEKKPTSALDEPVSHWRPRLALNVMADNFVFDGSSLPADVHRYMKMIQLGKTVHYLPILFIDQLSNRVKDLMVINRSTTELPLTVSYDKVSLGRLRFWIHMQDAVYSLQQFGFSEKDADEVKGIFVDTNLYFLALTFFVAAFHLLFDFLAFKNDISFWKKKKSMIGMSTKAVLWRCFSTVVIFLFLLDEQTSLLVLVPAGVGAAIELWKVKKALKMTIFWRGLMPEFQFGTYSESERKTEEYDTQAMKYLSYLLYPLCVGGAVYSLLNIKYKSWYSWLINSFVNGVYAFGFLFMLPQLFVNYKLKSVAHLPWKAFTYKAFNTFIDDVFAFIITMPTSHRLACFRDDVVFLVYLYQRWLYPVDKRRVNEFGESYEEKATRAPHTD
Test: affinity purification with mass spectrometry; proteins from S26 cells expressing CLPTM1L-HA or control vector incubated with Protein A/G magnetic beads conjugated with anti-HA antibody; SDS-PAGE, silver staining, the indicated band to mass spectrometry

binding: binds
B1: ERLIN2 (protein, UniProt O94905 1-339)
chain: MAQLGAVVAVASSFFCASLFSAVHKIEEGHIGVYYRGGALLTSTSGPGFHLMLPFITSYKSVQTTLQTDEVKNVPCGTSGGVMIYFDRIEVVNFLVPNAVYDIVKNYTADYDKALIFNKIHHELNQFCSVHTLQEVYIELFDQIDENLKLALQQDLTSMAPGLVIQAVRVTKPNIPEAIRRNYELMESEKTKLLIAAQKQKVVEKEAETERKKALIEAEKVAQVAEITYGQKVMEKETEKKISEIEDAAFLAREKAKADAECYTAMKIAEANKLKLTPEYLQLMKYKAIASNSKIYFGKDIPNMFMDSAGSVSKQFEGLADKLSFGLEDEPLETATKEN
